Four compounds from patent US7645864B2, “Erythromycin derivative having novel crystal structures and processes for their production” (Chugai Seiyaku Kabushiki Kaisha, priority 2001, dated 2010) can be followed below.

The structures appear in SMILES notation.

The data set in a line: Tabletting trouble when the crystal is used as main component to prepare tablets. Conditions: D-form crystal used as a main component to prepare tablets. The protocol: A fumarate salt of compound (I) (11.6 kg) was dissolved at 25° C. in a mixed solvent of ethyl acetate (104.6 kg) and methanol (9.2 kg). After the solution was concentrated, ethyl acetate (86.8 kg) was added at 25° C. to the concentrated residue, followed by stirring at 24° C. for 1 hour to give a C-form crystal. After addition of water (2.0%, 1.9 kg), this C-form crystal was gradually cooled to ensure its conversion into E-form crystal. The suspension was further cooled to 15° C. and stirred for 1 hour, followed by cooling to −10° C. The resulting crystal was then centrifuged to give a wet D-form crystal (13.4 kg). This wet D-form crystal was dried under reduced pressure at 60° C. for 28 hours to give the D-form crystal of the fumarate salt of compound (I) (10.5 kg, yield 90.5%, average particle size: 141 μm).
A fumarate salt of compound (I) (10.8 kg) was dissolved at 25° C. in a mixed solvent of ethyl acetate (87.6 kg) and methanol (8.5 kg). After the solution was concentrated, ethyl acetate (80.8 kg) was added at 25° C. to the concentrated residue, followed by stirring at 25° C. for 1 hour to give a C-form crystal. After addition of water (1.5%, 1.3 kg), this C-form crystal was cooled to 15° C. and stirred for 1 hour to ensure its conversion into D-form crystal. The suspension was further cooled to −10° C. and stirred for 1 hour. The resulting crystal was then centrifuged to give a wet D-form crystal (12.7 kg). This wet D-form crystal was dried under reduced pressure at 60° C. for 16 hours to give the D-form crystal of the fumarate salt of compound (I) (10.8 kg, yield 87.4%, average particle size: 82 μm).
As for `CC[C@H]1OC(=O)[C@H](C)[C@@H](O[C@H]2C[C@@](C)(OC)[C@@H](O)[C@H](C)O2)[C@H](C)[C@@H](O[C@@H]2O[C@H](C)C[C@H](N(C)C(C)C)[C@H]2O)[C@]2(C)CC(C)=C(O2)[C@H](C)C(=O)[C@]1(C)OC` [Comparison Example 1], the Tabletting trouble entry is “Tabletting troubles were observed and Yes”.
For `CC[C@H]1OC(=O)[C@H](C)[C@@H](O[C@H]2C[C@@](C)(OC)[C@@H](O)[C@H](C)O2)[C@H](C)[C@@H](O[C@@H]2O[C@H](C)C[C@H](N(C)C(C)C)[C@H]2O)[C@]2(C)CC(C)=C(O2)[C@H](C)C(=O)[C@]1(C)OC` [Comparison Example 2, reference compound], the Tabletting trouble entry is reported as “Yes”.
To `CC[C@H]1OC(=O)[C@H](C)[C@@H](O[C@H]2C[C@@](C)(OC)[C@@H](O)[C@H](C)O2)[C@H](C)[C@@H](O[C@@H]2O[C@H](C)C[C@H](N(C)C(C)C)[C@H]2O)[C@]2(C)CC(C)=C(O2)[C@H](C)C(=O)[C@]1(C)OC` [Example 7] belongs “No”.
To `CC[C@H]1OC(=O)[C@H](C)[C@@H](O[C@H]2C[C@@](C)(OC)[C@@H](O)[C@H](C)O2)[C@H](C)[C@@H](O[C@@H]2O[C@H](C)C[C@H](N(C)C(C)C)[C@H]2O)[C@]2(C)CC(C)=C(O2)[C@H](C)C(=O)[C@]1(C)OC` [Example 8] belongs “No”.
